No constants are given. Whether binding was seen depends on the method and setting. Binding seen in cells or lysates may run through a third protein. A yes stands for co-enrichment or nearness to the bait. Other partners may have been found. Where a sequence is shown, tags or fusion partners need not be part of it.
Molecular target: T1, Flag-tagged ACOX1 (acyl-CoA oxidase 1) (human) (UniProt Q15067)
T1 sequence: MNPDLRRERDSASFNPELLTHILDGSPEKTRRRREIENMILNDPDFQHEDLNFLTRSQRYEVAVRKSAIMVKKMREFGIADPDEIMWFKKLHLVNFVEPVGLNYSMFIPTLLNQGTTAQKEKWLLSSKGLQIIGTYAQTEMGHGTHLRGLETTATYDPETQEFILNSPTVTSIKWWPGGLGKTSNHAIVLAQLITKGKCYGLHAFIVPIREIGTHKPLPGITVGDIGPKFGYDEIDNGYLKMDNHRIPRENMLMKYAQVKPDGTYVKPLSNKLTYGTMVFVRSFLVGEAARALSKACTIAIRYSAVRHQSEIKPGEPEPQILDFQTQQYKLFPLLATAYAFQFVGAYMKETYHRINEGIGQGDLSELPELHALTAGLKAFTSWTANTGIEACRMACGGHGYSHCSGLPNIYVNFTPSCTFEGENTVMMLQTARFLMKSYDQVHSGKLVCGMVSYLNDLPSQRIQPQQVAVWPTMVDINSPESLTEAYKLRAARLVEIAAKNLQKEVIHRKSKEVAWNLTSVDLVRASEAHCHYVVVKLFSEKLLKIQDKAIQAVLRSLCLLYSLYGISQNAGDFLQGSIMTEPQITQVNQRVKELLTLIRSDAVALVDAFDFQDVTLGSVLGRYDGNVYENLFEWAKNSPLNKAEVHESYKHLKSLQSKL
Assay: affinity purification with mass spectrometry; Flag-ACOX1 expressed in HEK293T, precipitated with anti-Flag agarose beads, SDS-PAGE bands digested and analysed by MS; hit taken from the overlap with published MS data

B1: DUSP14, endogenous (enzyme, UniProt O95147 1-198)
chain: MSSRGHSTLPRTLMAPRMISEGDIGGIAQITSSLFLGRGSVASNRHLLQARGITCIVNATIEIPNFNWPQFEYVKVPLADMPHAPIGLYFDTVADKIHSVSRKHGATLVHCAAGVSRSATLCIAYLMKFHNVCLLEAYNWVKARRPVIRPNVGFWRQLIDYERQLFGKSTVKMVQTPYGIVPDVYEKESRHLMPYWGI
binding: binds

Reference: paper PMC9988979
